Here are results for 1 substance from PMC10290672.

Results are given in words; binding and its absence hold for the method and conditions named. A result given as binding can be weak or reduced; the word gives no strength. Tags and fused reporters may be left off the sequences shown.

This assay addresses T1, GST-WRNIP1 (UniProt Q96S55).
T1 sequence: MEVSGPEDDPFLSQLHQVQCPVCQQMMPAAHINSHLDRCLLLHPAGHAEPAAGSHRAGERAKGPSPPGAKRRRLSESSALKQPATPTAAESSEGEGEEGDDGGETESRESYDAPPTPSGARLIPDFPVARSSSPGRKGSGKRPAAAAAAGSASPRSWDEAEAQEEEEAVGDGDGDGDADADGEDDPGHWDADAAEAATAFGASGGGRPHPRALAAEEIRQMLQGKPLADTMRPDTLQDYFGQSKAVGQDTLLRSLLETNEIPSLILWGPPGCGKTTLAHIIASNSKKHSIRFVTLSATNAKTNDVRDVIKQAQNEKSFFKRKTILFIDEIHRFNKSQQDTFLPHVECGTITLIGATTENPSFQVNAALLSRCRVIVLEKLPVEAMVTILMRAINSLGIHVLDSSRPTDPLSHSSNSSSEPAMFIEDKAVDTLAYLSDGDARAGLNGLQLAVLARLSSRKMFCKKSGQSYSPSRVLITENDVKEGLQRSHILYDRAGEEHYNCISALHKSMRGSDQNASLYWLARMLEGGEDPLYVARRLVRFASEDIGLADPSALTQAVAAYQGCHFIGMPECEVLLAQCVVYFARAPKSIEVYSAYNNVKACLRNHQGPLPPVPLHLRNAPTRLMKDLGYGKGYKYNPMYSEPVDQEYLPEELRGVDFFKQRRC
Briefly: pull-down; 5 ug GST-WRNIP1 on GSH-Sepharose beads with various concentrations of His-MIUMyUb in 200 ul modified JS buffer, western blotting; in Fig. 3e 1 uM His-MIUMyUb with increasing K63 polyubiquitin (interaction enhanced); both purified. Background: Immunoblotting shows a protein as a band on a membrane.

For “His-tagged MIUMyUb domain construct of myosin VI (aa 992-1122, isoform 1) (domain or fragment)”, the binding result is listed as “binds”.
